Among the data in PubChem BioAssay AID493014 (National Center for Advancing Translational Sciences (NCATS), 2011) are AC50 values, retold here.

The list shows a part of the results. Shown are side measurements of this screen, not its main read-out; they come without a call. Compounds called inactive in the main read-out are mostly missing here. The note in brackets gives the kind of curve behind each potency; many fits are weak.

For orientation: AC50 means the midpoint of the concentration-response curve, whichever way the signal moves.

The assay can be described thus: qHTS Assay to Find Inhibitors of Chronic Active B-Cell Receptor Signaling. The following applies: ABC-DLBCL IkBa-CBG/CBR reporter, luminescence ratio (green luciferase fused to IkBa over red control in TMD8 lymphoma cells), 4 h. In a few lines: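 Compounds up to 46 uM were incubated four hours with TMD8 cells whose green CBG68 luciferase is fused to IkappaBalpha; red CBR luminescence normalised the signal, and concentration-effect curves were fitted to fusion, red and ratio data.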
A general note: Quantitative high-throughput screening tests each substance at several concentrations.

Where [1] appears, read: measured here: CBR red luminescence, cell number.
[2] abbreviates: measured here: IkBa-CBG green luminescence.

Take `CCOc1ccc2c(c1)C(C)=CC(C)(C)N2S(=O)(=O)c1ccc(F)cc1`: the half-maximal activity concentration (AC50) is 25.1 µM [rising, single point] under setting [1] and 35.5 µM [falling, single point] under setting [2]. Consider `O=C(Cc1ccc(-n2c(=O)[nH]c3ccccc3c2=O)cc1)N1CCN(c2cccc(Cl)c2)CC1`, for which, under setting [1], the concentration at half-maximal activity (AC50) is 22.4 µM [falling, single point]. On the same count and under the same terms, in the case of `CCOc1ccc(NC(=O)CN2C(=O)S/C(=C/c3cccn3C)C2=O)cc1` it was 35.5 µM [falling, single point]; in that of `C=CCn1c(N2CCN(c3ccc(OC)cc3)CC2)nc2c1c(=O)n(C)c(=O)n2C`, 1.12 µM [falling, partial curve, poor fit].

Regarding `COc1cc(OC)c2c(c1O)OC(c1ccccc1)CC2=O` (centres undefined), the AC50 under setting [1] was 35.5 µM [rising, single point]. For the compound `Cc1ccccc1OCCOC(=O)c1c(-c2ccccc2)noc1C`, the half-maximal activity concentration (AC50) is 17.8 µM [rising, partial curve] under setting [1] and 25.1 µM [falling, single point] under setting [2]. `CC(=O)Nc1ccc2nc(C3CCCCC3)[nH]c2c1`: the AC50 under setting [1] was 14.1 µM [falling, partial curve, poor fit].

As for `O=C(Nc1nccs1)c1cccc2ccccc12`, under setting [1], the concentration at half-maximal activity (AC50) is 25.1 µM [falling, single point].

For `O=C(Nc1cccc(Cl)c1N1CCCC1)c1cc2ccccc2o1`, the AC50 under setting [1] was 8.2 µM [rising, partial curve, poor fit]. Same read-out and setting: in the case of `Cc1nn(-c2ccc([N+](=O)[O-])cc2)c2c1C(c1cccc(Br)c1)N1C(=N2)C(=O)Nc2ccccc21` (centres undefined) it was 10.3 µM [rising, partial curve]; in that of `N/C(Cc1ccc(Cl)cc1Cl)=N\OC(=O)Cc1ccccc1`, 25.9 µM [rising, single point]. With `Cc1ccc(-c2noc(CSc3nc(N)cc(N)n3)n2)cc1`, the half-maximal activity concentration (AC50) under setting [1] is 18.4 µM [rising, partial curve, poor fit]. For the compound `CC(=O)Nc1nonc1NC(=O)CSc1nc2ccccc2o1`, the half-maximal activity concentration (AC50) under setting [2] is 14.1 µM [falling, single point].

For `C#CCn1cc(/C=N/Nc2nc3ccccc3[nH]2)c2ccccc21`, the concentration at half-maximal activity (AC50) under setting [1] is 16.4 µM [falling, single point]. Regarding `COC(=O)c1ccc(Cl)c(NC(=O)CN(c2ccccc2)S(=O)(=O)c2ccc(OC)cc2)c1`, the AC50 is, setting by setting: under setting [1], 0.92 µM [falling, full curve]; under setting [2], 18.4 µM [rising, partial curve]. Consider `Cc1ccc(C(=O)Nc2scc(-c3ccccc3)c2C(=O)O)o1`, for which the AC50 under setting [1] is 35.5 µM [falling, single point]. Take `COc1ccc(CCN(C)CC(O)COC(c2ccc(F)cc2)c2ccc(F)cc2)cc1OC` (centres undefined): under setting [1], the AC50 is 35.5 µM [falling, single point]. In the case of `NS(=O)(=O)c1ccc(CNC(=O)C2CCCCC2)cc1`, the half-maximal activity concentration (AC50) under setting [1] is 6.51 µM [falling, single point]. Same read-out and setting: under `O=C1CC(NNc2nc3ccccc3s2)C(=O)N1c1ccccc1` (centres undefined) stands 7.94 µM [falling, partial curve, poor fit]; under `O=C(COc1ccccc1-c1ccccc1)N/N=C/c1cccnc1`, 7.94 µM [falling, partial curve].

For `COc1ccc(C(=O)NNC(=O)Nc2ccc(Cl)cc2)cc1`, the half-maximal activity concentration (AC50) under setting [1] was 12.6 µM [falling, partial curve].

Turning to `c1ccc(OCCSc2nc3ccccc3o2)cc1`, the AC50 under setting [1] was 3.16 µM [rising, full curve]. With `CC(/C=N/N1CCN(Cc2ccccc2)CC1)=C\c1ccccc1`, the AC50 under setting [1] is 35.5 µM [rising, partial curve, poor fit]. On the same count and under the same terms, in the case of `COc1ccc(NS(=O)(=O)c2cccs2)cc1S(=O)(=O)N1CCCCC1` it was 3.26 µM [falling, full curve, poor fit]. Consider `O=C(Nc1ccc(N2CCCC2)cc1)c1cc(Cl)ccc1Cl`, for which the concentration at half-maximal activity (AC50) under setting [2] was 12.6 µM [falling, partial curve, poor fit]. Regarding `COc1ccc(NC(=O)c2ccccc2[N+](=O)[O-])cc1OC`, under setting [1], the half-maximal activity concentration (AC50) was 16.4 µM [falling, single point]. For `CC(/C=N/NC(=O)c1cccs1)=C\c1ccccc1`, the AC50 under setting [1] was 10 µM [falling, partial curve, poor fit]. `Cc1ccc(N2NC(=O)/C(=C\c3cc4c(cc3[N+](=O)[O-])OCO4)C2=O)cc1C`: the half-maximal activity concentration (AC50) under setting [1] was 20.6 µM [falling, single point]. Same read-out and setting: under `CCOC(=O)c1sc(NC(C)=O)nc1-c1ccccc1` stands 0.316 µM [falling, full curve, poor fit]; under `CN1C/C(=C/c2ccsc2)C(=O)/C(=C/c2ccsc2)C1`, 6.51 µM [falling, single point]. Regarding `Cc1nc(-c2ccc(NC(=O)c3ccccc3Br)cc2)cs1`, under setting [1], the AC50 is 9.2 µM [falling, partial curve, poor fit]. For `CCOc1ccc(N=Nc2c(N)[nH][nH]c2=O)cc1`, the AC50 under setting [1] is 10.3 µM [rising, partial curve, poor fit]. Consider `CCN(CC)C(=O)c1sc2nc(-c3cccs3)cc(-c3cccs3)c2c1N`, for which the concentration at half-maximal activity (AC50) under setting [1] is 35.5 µM [falling, single point]. For `COc1ccc2[nH]c(C(=O)O)c(NC(=O)c3cc(OC)c(OC)c(OC)c3)c2c1`, the half-maximal activity concentration (AC50) under setting [1] is 1.12 µM [rising, partial curve, poor fit]. Still for that read-out and setting: under `COc1cc2c(cc1OC)CN(C(=O)c1ccc([N+](=O)[O-])o1)CC2` stands 0.708 µM [rising, partial curve, poor fit]; under `CCc1ccc(C(=O)N/N=C(\C)c2ccncc2)s1`, 15.8 µM [falling, partial curve, poor fit]. Take `CCOc1ccc(OCCC(=O)OCC(=O)N2CCN(S(=O)(=O)c3ccc(C)cc3)CC2)cc1`: the AC50 is 10.3 µM [falling, partial curve] under setting [1] and 11.6 µM [rising, partial curve, poor fit] under setting [2]. On to `COc1cc2c(c(OC)c1OC)-c1ccc(OC)c(=O)cc1[C@@H](N(C)CC#CCO)CC2`, for which the AC50 under setting [1] is 0.794 µM [rising, full curve] and the half-maximal activity concentration (AC50) under setting [2] was 1 µM [falling, full curve]. `O=C(COc1ccccc1C(=O)NCc1ccncc1)Nc1ccc(Br)cc1`: under setting [1], the AC50 is 35.5 µM [falling, single point].
